Experimental data: PubChem BioAssay AID1159598 (NIAID, 2016)

Purpose: 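Canonical TLR pathway genes needed for TNF promoter response to flagellin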
System: human THP-1 B5 reporter cells made macrophage-like with PMA
Knock-down reagent: single siRNA against human genes
Timing: reporter read 48 to 72 hours after siRNA transfection
Conditions: flagellin stimulation for 4 hours, dose not given
Detection: 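TNF promoter firefly luciferase over renilla after 4 h flagellin, plate median/MAD scaled, robust z versus negative controls, mean of replicates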
Scale: TNF reporter z-score: higher = stronger TNF promoter activity than controls
Rule for the call: 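a row is called active when its replicate-mean z lies at or beyond 1.5 in either direction, so raised and lowered signal both count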
Meaning of the calls: active = reporter shifted beyond 1.5 z, up or down; inactive = reporter within 1.5 z of controls
The whole screen tested 756 reagents; shown is an unselected part. 142 of them (19%) were called active. 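Active includes both higher and lower reporter signal; each gene has six separate siRNAs, and no gene-level summary is deposited.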 Unmarked entries are inactive. The numbers tell different reagents against one gene apart. Not stated in the record: the amount of reagent.

| gene knocked down | siRNA no. | TNF reporter z-score |
| --- | --- | --- |
| ITGAX (integrin subunit alpha X) | 1 | -0.626 |
| ITGAX (integrin subunit alpha X) | 2 | -0.753 |
| ITGAX (integrin subunit alpha X) | 3 | 0.247 |
| ITGAX (integrin subunit alpha X) | 4 | -1.59 (active) |
| ITGAX (integrin subunit alpha X) | 5 | -0.308 |
| ITGAX (integrin subunit alpha X) | 6 | -0.559 |
| IKBKE (inhibitor of nuclear factor kappa B kinase subunit epsilon) | 1 | 0.465 |
| IKBKE (inhibitor of nuclear factor kappa B kinase subunit epsilon) | 2 | -1.22 |
| IKBKE (inhibitor of nuclear factor kappa B kinase subunit epsilon) | 3 | 0.554 |
| IKBKE (inhibitor of nuclear factor kappa B kinase subunit epsilon) | 4 | 0.642 |
| IKBKE (inhibitor of nuclear factor kappa B kinase subunit epsilon) | 5 | -1.4 |
| IKBKE (inhibitor of nuclear factor kappa B kinase subunit epsilon) | 6 | 0.465 |
| REL (REL proto-oncogene, NF-kB subunit) | 1 | -0.0581 |
| REL (REL proto-oncogene, NF-kB subunit) | 2 | -0.00525 |
| REL (REL proto-oncogene, NF-kB subunit) | 3 | -0.0187 |
| REL (REL proto-oncogene, NF-kB subunit) | 4 | -2.02 (active) |
| REL (REL proto-oncogene, NF-kB subunit) | 5 | -0.181 |
| REL (REL proto-oncogene, NF-kB subunit) | 6 | -0.284 |
| TANK (TRAF family member associated NFKB activator) | 1 | 0.342 |
| TANK (TRAF family member associated NFKB activator) | 2 | 0.0392 |
| TANK (TRAF family member associated NFKB activator) | 3 | -0.567 |
| TANK (TRAF family member associated NFKB activator) | 4 | 1.39 |
| TANK (TRAF family member associated NFKB activator) | 5 | -2.14 (active) |
| TANK (TRAF family member associated NFKB activator) | 6 | -2.36 (active) |
| CXCL9 (C-X-C motif chemokine ligand 9) | 1 | -2.57 (active) |
| CXCL9 (C-X-C motif chemokine ligand 9) | 2 | -0.121 |
| CXCL9 (C-X-C motif chemokine ligand 9) | 3 | -0.551 |
| CXCL9 (C-X-C motif chemokine ligand 9) | 4 | -2.45 (active) |
| CXCL9 (C-X-C motif chemokine ligand 9) | 5 | 0.185 |
| CXCL9 (C-X-C motif chemokine ligand 9) | 6 | 1.28 |
| CCL3 (C-C motif chemokine ligand 3) | 1 | -0.336 |
| CCL3 (C-C motif chemokine ligand 3) | 2 | -0.672 |
| CCL3 (C-C motif chemokine ligand 3) | 3 | -0.755 |
| CCL3 (C-C motif chemokine ligand 3) | 4 | -0.175 |
| CCL3 (C-C motif chemokine ligand 3) | 5 | 0.5 |
| CCL3 (C-C motif chemokine ligand 3) | 6 | -0.262 |
| PIK3R3 (phosphoinositide-3-kinase regulatory subunit 3) | 1 | 0.451 |
| PIK3R3 (phosphoinositide-3-kinase regulatory subunit 3) | 2 | -0.253 |
| PIK3R3 (phosphoinositide-3-kinase regulatory subunit 3) | 3 | -0.961 |
| PIK3R3 (phosphoinositide-3-kinase regulatory subunit 3) | 4 | -1.15 |
| PIK3R3 (phosphoinositide-3-kinase regulatory subunit 3) | 5 | -0.793 |
| PIK3R3 (phosphoinositide-3-kinase regulatory subunit 3) | 6 | -3.94 (active) |

An excerpt from the list above:
| gene knocked down | siRNA no. | TNF reporter z-score |
| --- | --- | --- |
| ITGAX (integrin subunit alpha X) | 1 | -0.626 |
| ITGAX (integrin subunit alpha X) | 2 | -0.753 |
| ITGAX (integrin subunit alpha X) | 3 | 0.247 |
| ITGAX (integrin subunit alpha X) | 4 | -1.59 (active) |
| ITGAX (integrin subunit alpha X) | 5 | -0.308 |
| ITGAX (integrin subunit alpha X) | 6 | -0.559 |
| IKBKE (inhibitor of nuclear factor kappa B kinase subunit epsilon) | 1 | 0.465 |
| IKBKE (inhibitor of nuclear factor kappa B kinase subunit epsilon) | 2 | -1.22 |
| IKBKE (inhibitor of nuclear factor kappa B kinase subunit epsilon) | 3 | 0.554 |
| IKBKE (inhibitor of nuclear factor kappa B kinase subunit epsilon) | 4 | 0.642 |
| IKBKE (inhibitor of nuclear factor kappa B kinase subunit epsilon) | 5 | -1.4 |

The results go on.
| gene knocked down | siRNA no. | TNF reporter z-score |
| --- | --- | --- |
| RIPK1 (receptor interacting serine/threonine kinase 1) | 1 | -0.33 |
| RIPK1 (receptor interacting serine/threonine kinase 1) | 2 | 0.276 |
| RIPK1 (receptor interacting serine/threonine kinase 1) | 3 | 0.123 |
| RIPK1 (receptor interacting serine/threonine kinase 1) | 4 | -1.5 |
| RIPK1 (receptor interacting serine/threonine kinase 1) | 5 | -0.494 |
| RIPK1 (receptor interacting serine/threonine kinase 1) | 6 | -0.135 |
| EP300 (EP300 lysine acetyltransferase) | 1 | 0.976 |
| EP300 (EP300 lysine acetyltransferase) | 2 | 0.568 |
| EP300 (EP300 lysine acetyltransferase) | 3 | 0.752 |
| EP300 (EP300 lysine acetyltransferase) | 4 | 0.309 |
| EP300 (EP300 lysine acetyltransferase) | 5 | 0.44 |
| EP300 (EP300 lysine acetyltransferase) | 6 | 0.698 |
| TLR1 (toll like receptor 1) | 1 | 0.66 |
| TLR1 (toll like receptor 1) | 2 | -0.652 |
| TLR1 (toll like receptor 1) | 3 | -1.53 (active) |
| TLR1 (toll like receptor 1) | 4 | 2.37 (active) |
| TLR1 (toll like receptor 1) | 5 | -0.799 |
| TLR1 (toll like receptor 1) | 6 | -0.199 |
| PIK3R2 (phosphoinositide-3-kinase regulatory subunit 2) | 1 | 0.837 |
| PIK3R2 (phosphoinositide-3-kinase regulatory subunit 2) | 2 | -0.227 |
| PIK3R2 (phosphoinositide-3-kinase regulatory subunit 2) | 3 | 0.321 |
| PIK3R2 (phosphoinositide-3-kinase regulatory subunit 2) | 4 | -0.438 |
| PIK3R2 (phosphoinositide-3-kinase regulatory subunit 2) | 5 | -1.79 (active) |
| PIK3R2 (phosphoinositide-3-kinase regulatory subunit 2) | 6 | -1.04 |
| IL12A (interleukin 12A) | 1 | 0.709 |
| IL12A (interleukin 12A) | 2 | -0.995 |
| IL12A (interleukin 12A) | 3 | -0.115 |
| IL12A (interleukin 12A) | 4 | 0.578 |
| IL12A (interleukin 12A) | 5 | -1.12 |
| IL12A (interleukin 12A) | 6 | 0.0137 |
| IFNB1 (interferon beta 1) | 1 | -0.859 |
| IFNB1 (interferon beta 1) | 2 | -1.31 |
| IFNB1 (interferon beta 1) | 3 | 0.205 |
| IFNB1 (interferon beta 1) | 4 | -0.876 |
| IFNB1 (interferon beta 1) | 5 | -1.94 (active) |
| IFNB1 (interferon beta 1) | 6 | -1.83 (active) |
